{
  "source": "patent US20220169728A1",
  "about": "(AB THERAPEUTICS, published 2022)",
  "binders": {"B1": {"name": "Anti-CD55 homodimer IgG (CD55 v2) containing the designed VH sequence (SEQ ID NO: 5) and the common VL2 sequence (SEQ ID NO: 7) (antibody, V domains shown)", "VH": "QVKLQESGGGLVKPGGSLKLSCAASGFTFSGYGMSWIRQTPGKRLEWVATINSGGSYTYYSDSVKGRFTISRDNVKNTLYLQMSSLKSEDTAMYYCARRNGTLYYYLMDYWGRGTLVTVSS", "VL": "QSALTQPASVSGSPGQSITISCTGTSSDVGGYNYVSWYQQHPGKAPKLMIYDVSNRPSGVSNRFSGSKSGNTASLTISGLQAEDEADYYCSSYTSSSTRIFGGGTKVTVLR"}},
  "biological_target": "T1, CD55 (UniProt P08174 35-353, limits assumed)",
  "T1 construct": "whole, on cells; also called CD55 on Rituximab resistant Raji cells (RRCL)",
  "T1 sequence (looked up)": "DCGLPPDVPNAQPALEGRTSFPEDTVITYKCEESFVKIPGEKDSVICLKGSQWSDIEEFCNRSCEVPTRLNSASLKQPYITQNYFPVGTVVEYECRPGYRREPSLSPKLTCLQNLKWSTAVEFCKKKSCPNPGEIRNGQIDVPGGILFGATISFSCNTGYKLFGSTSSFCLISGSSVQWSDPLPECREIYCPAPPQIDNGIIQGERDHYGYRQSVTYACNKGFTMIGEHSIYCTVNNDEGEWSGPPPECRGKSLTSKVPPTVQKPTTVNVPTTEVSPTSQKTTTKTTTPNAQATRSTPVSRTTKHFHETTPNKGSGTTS",
  "experiment": "flow cytometry binding to MDA231 cells at 0.63 µg/mL antibody, Cy3 goat anti-human IgG detection",
  "note": "These are yes or no findings as the source states them, for the method shown. Some results given as binding are weak or reduced against the parent protein; the word gives no strength.",
  "data": [
    {"binder": "B1", "values": [
      {"measurement": "binding", "value": "binds"}
    ]}
  ]
}
